Data as given in PubChem BioAssay AID493014 (National Center for Advancing Translational Sciences (NCATS), 2011).
Among all 340,000 compounds or so, about 170 (0.05%) were called active. Inconclusive results, whose numbers are uncertain, are shown with a selection of clear calls. The call rests on the fitted dose curve; in most records, active means well fitted inhibition curve with a large enough effect in the signal ratio, with a control signal flat (not every such curve was filed as active); inconclusive means small, poorly fitted or top-dose-only effect, or effect the other way, or a change in a side signal; inactive means flat fitted curve, though single readings scatter; the % refers to the signal ratio. Where the call is inconclusive, the potency comes from a doubtful curve fit.
Potency means the concentration at half of the fitted maximal effect.

Test: qHTS Assay to Find Inhibitors of Chronic Active B-Cell Receptor Signaling;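 on activity change, negative = inhibition: plate controls were basal doxycycline-induced cells for no effect and cells given 10 µM MG132 for full effect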
Conditions: ABC-DLBCL IkBa-CBG/CBR reporter, luminescence ratio (green luciferase fused to IkBa over red control in TMD8 lymphoma cells), 4 h; activity change, negative = inhibition: at 46.1 µM (top of the series)
Method in brief: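 TMD8 ABC-DLBCL cells carrying doxycycline-inducible green luciferase fused to IkappaBalpha plus unfused red luciferase were exposed to compounds (up to 46 uM) for 4 hrs at 37C. Activity came from the overlap-corrected green/red luminescence ratio.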
With `CC(CC(=O)Nc1cccnc1)c1ccccc1` (configuration not stated) the activity change, negative = inhibition was inconclusive: 18.5%. For `CCC(CC)C(=O)Nc1c(C)n(C)n(-c2ccccc2)c1=O`, the Potency was inconclusive: 29.1 µM [falling, single point]. For `COc1ccccc1-c1c(C)c(C)nc(N)c1C#N`, the “activity change, negative = inhibition” value was inactive: 2.35%. For `COc1cc(/C=C/C(=O)OCC(=O)Nc2sc3c(c2C#N)CCC(C)C3)ccc1OCC#N` (configuration not stated), the activity change, negative = inhibition was inconclusive: 3.06%. For `Cc1ccc(C(=O)N2CCC(n3nccc3NC(=O)c3ccccc3C)CC2)cn1`, the activity change, negative = inhibition was inconclusive: 7.61%. For `Cc1ccc(C)c(N2CCN(C(=O)C3CCN(c4nc(C)cc(C)n4)CC3)CC2)c1`, the activity change, negative = inhibition was inconclusive: 3.47%. For `O=[N+]([O-])c1ccc(/C=C2\CCC(C3=CCCC3)=C2N2CCOCC2)cc1`, the Potency was inconclusive: 4.11 µM [falling, partial curve, poor fit]. For `C#CCOCCOCCOCCNc1nc(N2CCN(C(=O)CCCCCCCCCCNC(=O)Cn3cc(CCCCCN)nn3)CC2)nc(N2CCN(C(=O)CCCCCCCCCCNC(=O)[C@@H](CCC(=O)O)n3cc(CCCCCN)nn3)CC2)n1`, the activity change, negative = inhibition was inconclusive: -0.848%. For `CC1=C(C(=O)OCC(C)C)C(c2ccsc2)NC(=O)N1` (configuration not stated), the Potency was inconclusive: 6.51 µM [falling, single point]. In the case of `COC(=O)c1cc(CSc2nc3ccc(C)cc3[nH]2)oc1C`, the Potency was inconclusive: 17.8 µM [falling, single point]. In the case of `O=C(NCCc1ccccc1)C1CCN(Cc2cc3ccccc3n2Cc2ccccc2)CC1`, the Potency was inconclusive: 11.2 µM [falling, partial curve, poor fit]. For `O=[N+]([O-])c1ccccc1Nc1c2ccccc2nc2ccccc12`, the activity change, negative = inhibition was inconclusive: -2.08%. For `COc1ccc(-c2cn3cccnc3n2)cc1NC(=O)Nc1cc(C)ccc1C`, the “activity change, negative = inhibition” value was inactive: 0.0019%. With `O=C(/C=C/Sc1ccccc1)c1ccc(Cl)cc1` the Potency was inconclusive: 20.6 µM [cytotoxic, partial curve]. In the case of `OCCc1c[nH]c2ccc(C(F)(F)F)cc12`, the activity change, negative = inhibition was inconclusive: 2.26%. For `CCc1cccc(CC)c1NC(=O)CSc1nnc(C2CC2)n1C`, the “activity change, negative = inhibition” value was inactive: -10.5%. In the case of `CCc1oc(C(=O)O)cc1COC`, the “activity change, negative = inhibition” value was inactive: 1.65%. In the case of `C#CCN1C(=O)S/C(=C/C=C/c2ccc(N(C)C)cc2)C1=O`, the activity change, negative = inhibition was inconclusive: 9.54%. In the case of `CCSc1ccccc1C(=O)N1CCN(Cc2ccc3c(c2)OCO3)CC1`, the activity change, negative = inhibition was inconclusive: -13.6%. In the case of `CCc1sc(C(=O)N2CCN(CC(=O)Nc3cccc(F)c3)CC2)cc1C`, the activity change, negative = inhibition was inconclusive: 4.59%. With `CCCCc1nnc(NC(=O)CSCc2cc(=O)n3cc(C)sc3n2)s1` the “activity change, negative = inhibition” value was inactive: 2.96%. For `CC(C)Oc1ccc(CCC(=O)NNC(=S)Nc2ccccc2)cc1`, the “activity change, negative = inhibition” value was inactive: -13.7%. In the case of `NS(=O)(=O)c1cccc(NC(=O)COC(=O)c2ccccc2SCC(=O)N2CCCC2)c1`, the activity change, negative = inhibition was inconclusive: -0.502%. In the case of `CCOC(=O)CSc1nc2cc(C)ccc2cc1C#N`, the “activity change, negative = inhibition” value was inactive: 0.95%. For `Cc1ccc(S(=O)(=O)N2CCOCC2)cc1C(=O)N1CCc2ccccc21`, the activity change, negative = inhibition was inconclusive: 1.21%. With `O=C(O)CC/C(=N\NC(=O)c1ccncc1)c1ccccc1` the “activity change, negative = inhibition” value was inactive: -16.1%. With `COC(=O)c1ccc(OCC2c3cc(OC)c(OC)cc3CCN2C(C)=O)cc1` (configuration not stated) the Potency was inconclusive: 12.6 µM [falling, partial curve, poor fit]. For `CCOc1ccc(CNC(=O)CCCC(=O)n2nc(C)c3ccccc32)cc1`, the activity change, negative = inhibition was inconclusive: -3.65%. With `Nc1ccc2c(c1)N=[N+]([O-])c1cc(N)ccc1C2` the activity change, negative = inhibition was inconclusive: 6.67%. In the case of `Cn1c(SCC(=O)c2cc(Cl)c(Cl)s2)nnc1-c1ccco1`, the “activity change, negative = inhibition” value was inactive: 6.07%. For `COc1ccc(Nc2cc(C)c3c(O)cccc3n2)cc1`, the “activity change, negative = inhibition” value was inactive: 0.0498%. With `CC(=O)Nc1ccc(NC(=O)c2c(-c3ccccc3Cl)noc2C)cc1` the “activity change, negative = inhibition” value was inactive: -7.3%. For `COc1ccccc1NC(=O)N1CCc2[nH]c3ccc(F)cc3c2C1`, the activity change, negative = inhibition was inconclusive: -18.9%. With `COc1cc(S(=O)(=O)N2CCOCC2)ccc1NC(=O)COC(=O)/C=C/c1cc(OC)c(OC)c(OC)c1` the activity change, negative = inhibition was inconclusive: 1.06%. In the case of `C=CCN(c1ccccc1)S(=O)(=O)c1cccc(C(=O)N2CCN(c3ncccn3)CC2)c1`, the “activity change, negative = inhibition” value was inactive: 2.75%. With `O=C(N/N=C/c1ccc(COc2ccc(Br)cc2)o1)c1ccc2c(c1)OCO2` the activity change, negative = inhibition was inconclusive: -5.26%. In the case of `C=CCc1ccc(OCCOCCNCCOC)c(OC)c1`, the activity change, negative = inhibition was inconclusive: -7.4%. With `O=C(COC(=O)c1cc(Br)ccc1O)Nc1cc(S(=O)(=O)N2CCCC2)ccc1Cl` the Potency was inconclusive: 35.5 µM [falling, single point]. In the case of `O=C(Nc1ccccc1)C1=C[C@H](c2ccc3c(c2)OCO3)C[C@H](OCCCCO)O1`, the activity change, negative = inhibition was inconclusive: 338%. For `CCCOc1ccccc1/C=C1\SC(N)=NC1=O`, the activity change, negative = inhibition was inconclusive: 3.43%. In the case of `CCOC(=O)C1CCCN(c2c(N3CCc4ccccc4C3)c(=O)c2=O)C1` (configuration not stated), the activity change, negative = inhibition was inconclusive: -0.458%. With `CCN(CC)C(=O)c1sc(NC(=O)c2ccc3c(c2)OCO3)c(C#N)c1C` the activity change, negative = inhibition was inconclusive: 7.05%. With `Cc1ccc2nc(NNC(=O)c3ccc(S(=O)(=O)N4CCc5ccccc5C4)cc3)sc2c1` the activity change, negative = inhibition was inconclusive: 7.75%. For `COc1ccccc1NC1=C(N2CCCCC2)C(=O)c2ccccc2C1=O`, the Potency was inconclusive: 23.1 µM [falling, partial curve]. For `CCOC(=O)C1=C(COC(=O)c2ccc3ccccc3c2O)NC(=O)NC1C` (configuration not stated), the activity change, negative = inhibition was inconclusive: -19.4%. With `CS(=O)(=O)N1CCN(c2ccccc2NC(=O)Cc2ccc(Cl)cc2)CC1` the activity change, negative = inhibition was inconclusive: -0.194%. For `C/C(=N\OC(=O)c1c(-c2c(F)cccc2Cl)noc1C)c1nccs1`, the activity change, negative = inhibition was inconclusive: 2.16%. For `COc1ccc(C)cc1N(C(=O)c1cccc(F)c1)c1nc2ccccc2s1`, the activity change, negative = inhibition was inconclusive: 19.3%. With `N#Cc1ccccc1NC(=O)COc1ccccc1C(=O)Nc1ccccc1` the activity change, negative = inhibition was inconclusive: -15.4%. In the case of `CCCCN(C(=O)CSc1nc2ccccc2s1)c1c(N)n(CCCC)c(=O)[nH]c1=O`, the activity change, negative = inhibition was inconclusive: 2.92%. With `CCn1c(SCC(=O)Nc2nccs2)nnc1-c1ccccc1` the activity change, negative = inhibition was inconclusive: -1.09%. With `COc1ccc(CNc2nc3c(c(=O)n(Cc4ccc(Br)cc4)c(=O)n3C)n2C)cc1` the “activity change, negative = inhibition” value was inactive: 3.89%. For `O=C(/C=C/c1ccc2c(c1)OCO2)c1cccnc1`, the “activity change, negative = inhibition” value was inactive: 0.803%. In the case of `O=C(Nc1ccc(Br)cc1)c1cccn1-c1ncc(C(F)(F)F)cc1Cl`, the Potency was inconclusive: 12.6 µM [rising, single point]. With `O=C(N1CCOCC1)N1CCN(S(=O)(=O)N2CCCCC2)CC1` the activity change, negative = inhibition was inconclusive: 3.71%. In the case of `O=C1c2cc(N3CCCC3)c([N+](=O)[O-])cc2C(=O)N1c1ccccc1`, the activity change, negative = inhibition was inconclusive: 0.933%. With `COc1ccc(C(CC(=O)NCc2ccco2)c2ccc(F)cc2)cc1` (configuration not stated) the activity change, negative = inhibition was inconclusive: 0.693%. With `COc1ccc(/C=N/Nc2ncnc3sc4c(c23)CCCC4)cc1O` the Potency was inconclusive: 20.6 µM [falling, partial curve]. In the case of `Cc1ccccc1OCCCCN1CCCCC1`, the “activity change, negative = inhibition” value was inactive: 1.05%. In the case of `CN(C)Cc1nc2ccccc2c(=O)n1Cc1nc(-c2cccc([N+](=O)[O-])c2)cs1`, the “activity change, negative = inhibition” value was inactive: 1.13%. For `COc1ccc2c(c1OC)C(=O)N(c1ccccc1)C2=O`, the activity change, negative = inhibition was inconclusive: -4.84%. For `O=C(CSc1nc2ccccc2c(=O)n1-c1ccc(Cl)cc1)N/N=C/C=C/c1ccccc1[N+](=O)[O-]`, the Potency was inconclusive: 5.8 µM [falling, full curve]. With `COc1ccc(N2CS(=O)CC2=O)cc1` (configuration not stated) the activity change, negative = inhibition was inconclusive: 8.72%. With `O=C(Cn1cnc2ccccc2c1=O)Nc1cccc(-c2nnc3n2CCCCC3)c1` the activity change, negative = inhibition was inconclusive: -0.083%. In the case of `C[C@@H]1C=C(C(=O)N2CCN(Cc3ccc4c(c3)OCO4)CC2)O[C@H](OCCCCO)C1`, the Potency was inconclusive: 6.31 µM [falling, partial curve, poor fit]. In the case of `O=C(NCc1ccco1)C(c1cccs1)N(C(=O)C1COc2ccccc2O1)c1cccc(O)c1` (configuration not stated), the activity change, negative = inhibition was inconclusive: 2.93%. In the case of `CC(C)c1ccccc1NC(=O)COC(=O)Cc1c[nH]c2ccccc12`, the activity change, negative = inhibition was inconclusive: -14.4%. With `CCC(C)c1ccccc1N1CC(C(=O)Nc2ccc(C)c(S(=O)(=O)N3CCOCC3)c2)CC1=O` (configuration not stated) the “activity change, negative = inhibition” value was inactive: -1.5%. With `COC1=C/C(=C/c2c(N)n3cc(C)sc3nc2=O)C=CC1=O` the activity change, negative = inhibition was inconclusive: 0.957%. With `C=CCn1c(SCC(=O)NC)nc2sc3c(c2c1=O)CCC3` the Potency was inconclusive: 29.1 µM [falling, single point]. In the case of `Cc1c(C(=O)O)cnc2cc(-c3ccc(Cl)cc3)nn12`, the Potency was inconclusive: 29.1 µM [rising, single point]. In the case of `NC(=O)c1cc(Br)cc(C2CCCCC2)c1O`, the Potency was inconclusive: 35.5 µM [rising, partial curve, poor fit]. For `NCC(c1ccccc1)(c1ccccc1)c1ccccc1`, the activity change, negative = inhibition was inconclusive: -2.71%. In the case of `O=C(N/N=C/c1ccc2c(c1)OCO2)c1ccc(Br)o1`, the Potency was inconclusive: 6.51 µM [falling, single point]. In the case of `CCC(=O)N1CCN(c2ccc(NC(=O)c3cc4ccccc4o3)cc2)CC1`, the activity change, negative = inhibition was inconclusive: -0.402%. In the case of `CCNC(=S)NNc1nncc2ccccc12`, the Potency was inconclusive: 25.1 µM [falling, single point]. For `COc1ccnc(Oc2ccc3ccccc3c2)c1C#N`, the activity change, negative = inhibition was inconclusive: 11.9%. With `C/C(=N\O)c1cccc(Br)c1` the activity change, negative = inhibition was inconclusive: 13.2%. For `Cc1noc(C)c1CN1C(=O)NC2(CCCCCCC2)C1=O`, the activity change, negative = inhibition was inconclusive: 26.2%. In the case of `COc1ccc(NC(=O)COc2ccc(N(C)S(=O)(=O)c3ccc(Cl)cc3)cc2)cc1OC`, the “activity change, negative = inhibition” value was inactive: 2.84%. In the case of `O=C(O)CSc1cc(C(=O)c2ccccc2O)cn2c(=O)c3c(-c4ccccc4)csc3nc12`, the “activity change, negative = inhibition” value was inactive: 18.8%. In the case of `COc1ccc(OC)c(-c2csc(NC(=O)c3ccc4c(c3)OCO4)n2)c1`, the “activity change, negative = inhibition” value was inactive: 2.58%.
